Experimental data taken from article PMC5031503.
These are yes or no findings as the source states them, for the method shown. Binding seen in cells or lysates may run through a third protein. Some entries that bind do so weakly or less than the wild type.

Protein sequences, listed by entry. Tags and fused reporters are not part of them.
UniProt Q9NYB9: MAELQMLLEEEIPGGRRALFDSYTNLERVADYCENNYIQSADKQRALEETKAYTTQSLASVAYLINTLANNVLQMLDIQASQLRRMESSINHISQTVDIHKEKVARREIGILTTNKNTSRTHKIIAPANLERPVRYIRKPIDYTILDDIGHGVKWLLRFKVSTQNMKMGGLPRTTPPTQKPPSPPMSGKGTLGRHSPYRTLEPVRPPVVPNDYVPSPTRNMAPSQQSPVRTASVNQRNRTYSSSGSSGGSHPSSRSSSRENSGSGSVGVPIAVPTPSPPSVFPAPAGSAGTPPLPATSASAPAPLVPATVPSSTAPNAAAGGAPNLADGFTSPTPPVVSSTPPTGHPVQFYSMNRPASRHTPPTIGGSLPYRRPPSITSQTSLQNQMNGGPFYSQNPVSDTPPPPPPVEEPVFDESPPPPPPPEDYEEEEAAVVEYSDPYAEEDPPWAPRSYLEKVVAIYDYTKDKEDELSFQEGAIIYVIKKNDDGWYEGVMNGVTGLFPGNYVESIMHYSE
UniProt Q70E73: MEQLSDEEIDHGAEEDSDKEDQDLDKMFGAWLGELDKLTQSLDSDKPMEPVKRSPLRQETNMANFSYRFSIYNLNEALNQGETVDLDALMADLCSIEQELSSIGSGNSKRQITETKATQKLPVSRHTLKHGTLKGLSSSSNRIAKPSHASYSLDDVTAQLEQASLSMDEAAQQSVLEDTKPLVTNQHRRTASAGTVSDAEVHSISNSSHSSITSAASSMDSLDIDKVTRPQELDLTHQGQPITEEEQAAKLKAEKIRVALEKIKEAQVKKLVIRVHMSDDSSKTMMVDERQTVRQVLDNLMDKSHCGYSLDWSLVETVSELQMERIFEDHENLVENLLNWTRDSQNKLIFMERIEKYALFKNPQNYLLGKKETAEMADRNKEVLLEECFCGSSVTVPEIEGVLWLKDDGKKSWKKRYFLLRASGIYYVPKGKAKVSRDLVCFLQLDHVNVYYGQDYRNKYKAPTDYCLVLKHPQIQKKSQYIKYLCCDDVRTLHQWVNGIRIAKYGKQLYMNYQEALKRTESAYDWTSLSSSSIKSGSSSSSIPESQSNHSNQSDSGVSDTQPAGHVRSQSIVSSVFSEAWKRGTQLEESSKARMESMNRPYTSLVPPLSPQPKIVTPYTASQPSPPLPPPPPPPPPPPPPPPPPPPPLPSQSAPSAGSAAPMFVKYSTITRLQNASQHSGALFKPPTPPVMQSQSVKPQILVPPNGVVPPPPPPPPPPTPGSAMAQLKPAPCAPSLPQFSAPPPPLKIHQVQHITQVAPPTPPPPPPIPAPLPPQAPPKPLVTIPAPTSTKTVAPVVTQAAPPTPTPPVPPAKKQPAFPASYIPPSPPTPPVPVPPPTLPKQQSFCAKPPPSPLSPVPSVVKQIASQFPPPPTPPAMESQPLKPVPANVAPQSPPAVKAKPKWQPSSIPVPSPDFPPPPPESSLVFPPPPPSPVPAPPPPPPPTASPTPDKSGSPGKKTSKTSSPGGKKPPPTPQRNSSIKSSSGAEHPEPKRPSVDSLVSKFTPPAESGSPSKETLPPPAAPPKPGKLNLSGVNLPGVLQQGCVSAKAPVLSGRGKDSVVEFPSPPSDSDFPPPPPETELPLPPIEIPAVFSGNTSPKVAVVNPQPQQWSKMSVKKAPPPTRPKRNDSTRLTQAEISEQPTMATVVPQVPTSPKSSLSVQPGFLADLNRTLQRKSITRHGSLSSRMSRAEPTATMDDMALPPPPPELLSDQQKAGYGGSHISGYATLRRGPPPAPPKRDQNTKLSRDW
UniProt Q9Y6W5: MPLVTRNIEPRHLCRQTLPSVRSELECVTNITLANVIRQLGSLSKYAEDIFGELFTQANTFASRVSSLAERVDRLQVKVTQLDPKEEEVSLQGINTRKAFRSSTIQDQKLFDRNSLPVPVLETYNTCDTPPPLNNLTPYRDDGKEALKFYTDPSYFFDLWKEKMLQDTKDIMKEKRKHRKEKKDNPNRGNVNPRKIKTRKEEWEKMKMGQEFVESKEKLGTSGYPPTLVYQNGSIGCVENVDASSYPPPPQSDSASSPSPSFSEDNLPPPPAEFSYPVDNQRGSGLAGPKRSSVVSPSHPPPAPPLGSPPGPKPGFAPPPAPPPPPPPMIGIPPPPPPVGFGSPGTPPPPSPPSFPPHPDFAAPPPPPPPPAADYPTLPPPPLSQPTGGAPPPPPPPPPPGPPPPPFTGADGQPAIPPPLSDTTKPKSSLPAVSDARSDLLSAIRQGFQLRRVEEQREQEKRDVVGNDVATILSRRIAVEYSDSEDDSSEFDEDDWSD

Biological target: GST-Abi2 (UniProt Q9NYB9)
Experiment: pull-down; GST-Abi ectopically expressed in HEK cells and pulled down from lysate; co-expressed GFP-Src or GFP; with or without the c-Src inhibitor KB SRC 4 (100 uM, 1 h) or DMSO; endogenous Scar/WAVE2 and endogenous Lpd detected

binding | Substance
binds | endogenous Lpd (Lamellipodin) (from UniProt Q70E73 1-1250)
binds | endogenous Scar/WAVE2 (from UniProt Q9Y6W5 1-498)
